Data taken from the supplement of paper PMC6658780.
Structures can show the parent of a compound that is named as a salt. ± gives the standard deviation of the averaged measurements. This is one part of the list. Repeats in this data set agree poorly, so a single value says little.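 The A. baumannii clinical isolates were selected for resistance to the partner antibiotic; the screen seeks drugs that restore its effect. Background from coloured compounds is removed by subtracting the start-of-incubation reading.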

Each compound was assayed on Acinetobacter baumannii WP-487 (assay: percent growth inhibition of drug alone vs DMSO control; higher = more growth inhibition). Conditions: antibiotic (0.125x MIC): none (0.1% DMSO); 7 µM.
Experimental: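 Prestwick drugs tested at 20 uM and 7 uM with an antibiotic at 0.125x MIC (16 mg/L when MIC >128 mg/L) in cation-adjusted Mueller-Hinton broth, 384-well plates, duplicate runs on different days. Percent growth inhibition was computed from OD600 (24 h minus 0 h) relative to DMSO-only wells. Drug + 0.1% DMSO (no antibiotic) wells are also given. Only hits (max corrected inhibition > mean + 3SD) are listed. A. baumannii: NCTC-13301 was used for MEM/CIP/GEN/TGC and WP-487 for colistin. Duplicates with colistin are strongly discordant (run 2 near 100% for most drugs).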
For CC(=O)[C@@]12O[C@](C)(c3ccccc3)O[C@@H]1C[C@H]1[C@@H]3CCC4=CC(=O)CC[C@]4(C)[C@H]3CC[C@@]12C [Algestone acetophenide], the “percent growth inhibition of drug alone” value was 4.11 ± 1.4%. For OCCN1CCN(CC/C=C2/c3ccccc3Sc3ccc(Cl)cc32)CC1 [Zuclopenthixol dihydrochloride], the “percent growth inhibition of drug alone” value was 4.9 ± 2.3%. With CN(C)CCCN1c2ccccc2Sc2ccc(C(F)(F)F)cc21 [Triflupromazine hydrochloride] the “percent growth inhibition of drug alone” value was 5.7 ± 0.79%. For O=C1NCN(c2ccccc2)C12CCN(CCCC(c1ccc(F)cc1)c1ccc(F)cc1)CC2 [Fluspirilen], the “percent growth inhibition of drug alone” value was 3.06 ± 0.55%. For O=C1CCc2ccc(OCCCCN3CCN(c4cccc(Cl)c4Cl)CC3)cc2N1 [Aripiprazole], the “percent growth inhibition of drug alone” value was 1.17 ± 4.4%. With Cc1cccc(CN2CCN(C(c3ccccc3)c3ccc(Cl)cc3)CC2)c1 (stereo not given) [Meclozine dihydrochloride] the “percent growth inhibition of drug alone” value was 0.34 ± 9.2%. O=C1OCCN1/N=C/c1ccc([N+](=O)[O-])o1 [Furazolidone] was tested, and the “percent growth inhibition of drug alone” value was 0.239 ± 8.4%. For CN(C)CCOC1=Cc2ccccc2Sc2ccc(Cl)cc21 [Zotepine], the “percent growth inhibition of drug alone” value was 0.656 ± 10%. In the case of COc1ccccc1N1CCN(CC(O)COc2cccc3ccccc23)CC1 (stereo not given) [Naftopidil dihydrochloride], the “percent growth inhibition of drug alone” value is reported as -0.615 ± 8.1%. In the case of O=C1NCCN1c1ncc([N+](=O)[O-])s1 [Niridazole], the “percent growth inhibition of drug alone” value is reported as -3.2 ± 7.5%. In the case of OCCN1CCN(CCCN2c3ccccc3Sc3ccc(Cl)cc32)CC1 [Perphenazine], the “percent growth inhibition of drug alone” value is reported as 4.58 ± 1%. In the case of CCCCc1oc2ccccc2c1C(=O)c1cc(I)c(OCCN(CC)CC)c(I)c1 [Amiodarone hydrochloride], the “percent growth inhibition of drug alone” value is reported as -4.51 ± 8.4%. CCN(CC)CCOc1ccc(C(=C(Cl)c2ccccc2)c2ccccc2)cc1 [Clomiphene citrate (Z,E)] was tested, and the “percent growth inhibition of drug alone” value was -2.96 ± 5.1%. O=c1[nH]cnc2c1ncn2[C@H]1CC[C@@H](CO)O1 [Didanosine] was tested, and the “percent growth inhibition of drug alone” value was 0.136 ± 5%. For CC(C)(O)c1ccccc1CC[C@@H](SCC1(CC(=O)O)CC1)c1cccc(/C=C/c2ccc3ccc(Cl)cc3n2)c1 [Montelukast], the “percent growth inhibition of drug alone” value was -3.85 ± 5.8%. In the case of CCCCCCCCNC(C)C(O)c1ccc(SC(C)C)cc1 (stereo not given) [Suloctidil], the “percent growth inhibition of drug alone” value is reported as 4.24 ± 1.4%. With CC/C(=C(/CC)c1ccc(O)cc1)c1ccc(O)cc1 [Diethylstilbestrol] the “percent growth inhibition of drug alone” value was 1.56 ± 7.9%. In the case of COC(=O)C1=C(C#N)NC(C)=C(C(=O)OC(C)C)C1c1cccc([N+](=O)[O-])c1 (stereo not given) [Nilvadipine], the “percent growth inhibition of drug alone” value is reported as -0.629 ± 6.7%. In the case of CC(NCCC(c1ccccc1)c1ccccc1)c1ccccc1 (stereo not given) [Fendiline hydrochloride], the “percent growth inhibition of drug alone” value is reported as 1.4 ± 6.5%. In the case of NC[C@@H]1O[C@H](O[C@H]2[C@@H](O)[C@H](O[C@@H]3[C@@H](O)[C@H](N)C[C@H](N)[C@H]3O[C@H]3O[C@H](CO)[C@@H](O)[C@H](O)[C@H]3N)O[C@@H]2CO)[C@H](N)[C@@H](O)[C@@H]1O [Paromomycin sulfate], the “percent growth inhibition of drug alone” value is reported as 8.68 ± 0.36%.

Same assay, conditions: antibiotic (0.125x MIC): none (0.1% DMSO); 20 µM
CC(=O)[C@@]12O[C@](C)(c3ccccc3)O[C@@H]1C[C@H]1[C@@H]3CCC4=CC(=O)CC[C@]4(C)[C@H]3CC[C@@]12C [Algestone acetophenide] was tested, and the “percent growth inhibition of drug alone” value was 7.1 ± 6.4%. OCCN1CCN(CC/C=C2/c3ccccc3Sc3ccc(Cl)cc32)CC1 [Zuclopenthixol dihydrochloride] was tested, and the “percent growth inhibition of drug alone” value was 4.49 ± 6.6%. For CN(C)CCCN1c2ccccc2Sc2ccc(C(F)(F)F)cc21 [Triflupromazine hydrochloride], the “percent growth inhibition of drug alone” value was -0.389 ± 2.3%. For O=C1NCN(c2ccccc2)C12CCN(CCCC(c1ccc(F)cc1)c1ccc(F)cc1)CC2 [Fluspirilen], the “percent growth inhibition of drug alone” value was 73.3 ± 35%. For O=C1CCc2ccc(OCCCCN3CCN(c4cccc(Cl)c4Cl)CC3)cc2N1 [Aripiprazole], the “percent growth inhibition of drug alone” value was 4.13 ± 2.4%. With Cc1cccc(CN2CCN(C(c3ccccc3)c3ccc(Cl)cc3)CC2)c1 (stereo not given) [Meclozine dihydrochloride] the “percent growth inhibition of drug alone” value was 4.44 ± 4.6%. With O=C1OCCN1/N=C/c1ccc([N+](=O)[O-])o1 [Furazolidone] the “percent growth inhibition of drug alone” value was 7.436 ± 0.013%. In the case of CN(C)CCOC1=Cc2ccccc2Sc2ccc(Cl)cc21 [Zotepine], the “percent growth inhibition of drug alone” value is reported as 0.833 ± 2.1%. With COc1ccccc1N1CCN(CC(O)COc2cccc3ccccc23)CC1 (stereo not given) [Naftopidil dihydrochloride] the “percent growth inhibition of drug alone” value was 0.734 ± 5.1%. In the case of O=C1NCCN1c1ncc([N+](=O)[O-])s1 [Niridazole], the “percent growth inhibition of drug alone” value is reported as -0.525 ± 2.6%. In the case of OCCN1CCN(CCCN2c3ccccc3Sc3ccc(Cl)cc32)CC1 [Perphenazine], the “percent growth inhibition of drug alone” value is reported as 1.85 ± 2.1%. For CCCCc1oc2ccccc2c1C(=O)c1cc(I)c(OCCN(CC)CC)c(I)c1 [Amiodarone hydrochloride], the “percent growth inhibition of drug alone” value was 3.55 ± 3.6%. In the case of CCN(CC)CCOc1ccc(C(=C(Cl)c2ccccc2)c2ccccc2)cc1 [Clomiphene citrate (Z,E)], the “percent growth inhibition of drug alone” value is reported as 3.72 ± 7.9%. With O=c1[nH]cnc2c1ncn2[C@H]1CC[C@@H](CO)O1 [Didanosine] the “percent growth inhibition of drug alone” value was -1.96 ± 2.9%. CC(C)(O)c1ccccc1CC[C@@H](SCC1(CC(=O)O)CC1)c1cccc(/C=C/c2ccc3ccc(Cl)cc3n2)c1 [Montelukast] was tested, and the “percent growth inhibition of drug alone” value was -2.94 ± 0.36%. In the case of CCCCCCCCNC(C)C(O)c1ccc(SC(C)C)cc1 (stereo not given) [Suloctidil], the “percent growth inhibition of drug alone” value is reported as 7.32 ± 11%. In the case of CC/C(=C(/CC)c1ccc(O)cc1)c1ccc(O)cc1 [Diethylstilbestrol], the “percent growth inhibition of drug alone” value is reported as 0.398 ± 0.9%. COC(=O)C1=C(C#N)NC(C)=C(C(=O)OC(C)C)C1c1cccc([N+](=O)[O-])c1 (stereo not given) [Nilvadipine] was tested, and the “percent growth inhibition of drug alone” value was -3.5 ± 1.3%. In the case of CC(NCCC(c1ccccc1)c1ccccc1)c1ccccc1 (stereo not given) [Fendiline hydrochloride], the “percent growth inhibition of drug alone” value is reported as 0.842 ± 2.8%. With NC[C@@H]1O[C@H](O[C@H]2[C@@H](O)[C@H](O[C@@H]3[C@@H](O)[C@H](N)C[C@H](N)[C@H]3O[C@H]3O[C@H](CO)[C@@H](O)[C@H](O)[C@H]3N)O[C@@H]2CO)[C@H](N)[C@@H](O)[C@@H]1O [Paromomycin sulfate] the “percent growth inhibition of drug alone” value was 18.9 ± 26%.
